Measurements: patent publication US8168650B2, “Therapeutic uses of bicyclic ligands of sigma 2 receptor” (priority 2006, dated 2012)
Where two headings read alike, the source gives them in different places.

Tested on: EMT-6 cells
Test: Cytotoxicity assay (MTS) in EMT-6 cells
Assay type: cell-based
Conditions: Mus musculus

Q: How did the EC50 (EMT6, 24 h, read-out: EC50 (μM, 24 hours), EMT-6, MTS assay, 24 hours) turn out when `O=C(CCCN1CCC(O)(c2ccc(Cl)cc2)CC1)c1ccc(F)cc1` [Haloperidol, reference compound] was run?
A: 345 ± 77.8 µM

Q: What about the EC50 (EMT6, 48 h, EMT-6, MTS assay, 48 hours, read-out: EC50 (μM, 48 hours)) of the same compound?
A: 39 ± 1.4 µM
